Common to all, as to assay: glycan array binding signal (z-score within array); higher = stronger binding
Holding throughout (settings): glycan notation: IUPAC condensed, linker removed

The target in assay [1] is GlcNAc(b1-3)Gal(b1-4)GlcNAc(b1-3)Gal(b1-4)GlcNAc(b1-3)Gal(b1-4)GlcNAc(b1-2)Man(a1-3)[GlcNAc(b1-3)Gal(b1-4)GlcNAc(b1-3)Gal(b1-4)GlcNAc(b1-3)Gal(b1-4)GlcNAc(b1-2)Man(a1-6)]Man(b1-4)GlcNAc(b1-4)[Fuc(a1-6)]GlcNAc. An outline of the steps: (§1)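 Glycan array binding is given as a within-array Z-score, which can be read as non-binding when negative. The arrays, 3228 of them, came from the Consortium for Functional Glycomics database and were retained only where the protein sequence was available. Z-scores were averaged across arrays of the same protein sequence at different concentrations or buffers and across linkers.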

Assay [2] has as its target GlcNAc(b1-3)Gal(b1-4)GlcNAc(b1-3)Gal(b1-4)GlcNAc(b1-3)Gal(b1-4)GlcNAc(b1-2)[GlcNAc(b1-3)Gal(b1-4)GlcNAc(b1-3)Gal(b1-4)GlcNAc(b1-3)Gal(b1-4)GlcNAc(b1-6)]Man(a1-6)[GlcNAc(b1-3)Gal(b1-4)GlcNAc(b1-3)Gal(b1-4)GlcNAc(b1-3)Gal(b1-4)GlcNAc(b1-2)Man(a1-3)]Man(b1-4)GlcNAc(b1-4)[Fuc(a1-6)]GlcNAc. An outline of the steps:
as §1

The target of assay [3] is GlcNAc(b1-3)Gal(b1-4)GlcNAc(b1-3)Gal(b1-4)GlcNAc(b1-3)Gal(b1-4)GlcNAc(b1-3)Gal(b1-4)GlcNAc(b1-2)Man(a1-3)[GlcNAc(b1-3)Gal(b1-4)GlcNAc(b1-3)Gal(b1-4)GlcNAc(b1-3)Gal(b1-4)GlcNAc(b1-3)Gal(b1-4)GlcNAc(b1-2)Man(a1-6)]Man(b1-4)GlcNAc(b1-4)GlcNAc. An outline of the steps:
as §1

Assay [4] deals with GlcNAc(b1-3)Gal(b1-4)GlcNAc(b1-3)Gal(b1-4)GlcNAc(b1-3)Gal(b1-4)GlcNAc(b1-3)Gal(b1-4)GlcNAc(b1-2)Man(a1-3)[GlcNAc(b1-3)Gal(b1-4)GlcNAc(b1-3)Gal(b1-4)GlcNAc(b1-3)Gal(b1-4)GlcNAc(b1-3)Gal(b1-4)GlcNAc(b1-2)Man(a1-6)]Man(b1-4)GlcNAc(b1-4)[Fuc(a1-6)]GlcNAc. An outline of the steps: as §1
Assay [5] deals with GlcNAc(b1-3)Gal(b1-4)GlcNAc(b1-3)Gal(b1-4)GlcNAc(b1-3)Gal(b1-4)GlcNAc(b1-3)Gal(b1-4)GlcNAc(b1-2)[GlcNAc(b1-3)Gal(b1-4)GlcNAc(b1-3)Gal(b1-4)GlcNAc(b1-3)Gal(b1-4)GlcNAc(b1-3)Gal(b1-4)GlcNAc(b1-6)]Man(a1-6)[GlcNAc(b1-3)Gal(b1-4)GlcNAc(b1-3)Gal(b1-4)GlcNAc(b1-3)Gal(b1-4)GlcNAc(b1-3)Gal(b1-4)GlcNAc(b1-2)Man(a1-3)]Man(b1-4)GlcNAc(b1-4)[Fuc(a1-6)]GlcNAc. An outline of the steps:
as §1

The target in assay [6] is GlcNAc(b1-3)Gal(b1-4)GlcNAc(b1-3)Gal(b1-4)GlcNAc(b1-3)GalNAc. An outline of the steps:
as §1

The target in assay [7] is GlcNAc(b1-3)Gal(b1-4)GlcNAc(b1-3)GalNAc. An outline of the steps: as §1
For assay [8], the target named is GlcNAc(b1-3)Gal(b1-4)GlcNAc(b1-3)[GlcNAc(b1-3)Gal(b1-4)GlcNAc(b1-3)]GalNAc. An outline of the steps:
as §1

Assay [9] concerns the target GlcNAc(b1-3)Gal(b1-4)GlcNAc(b1-6)[Gal(b1-3)]GalNAc. An outline of the steps:
as §1

Assay [10] deals with GlcNAc(b1-3)Gal(b1-4)GlcNAc(b1-6)[GlcNAc(b1-3)Gal(b1-3)]GalNAc. An outline of the steps: as §1
In assay [11] the target is GlcNAc(b1-3)Gal(b1-4)GlcNAc(b1-6)[GlcNAc(b1-3)]Gal(b1-4)GlcNAc. An outline of the steps:
as §1

The target in the next assay is GlcNAc(b1-3)GalNAc. An outline of the steps:
as §1

A further assay has as its target GlcNAc(b1-3)Man. An outline of the steps: as §1
The target in assay [12] is GlcNAc(b1-3)[GlcNAc(b1-4)][GlcNAc(b1-6)]GlcNAc. An outline of the steps: as §1
The target in assay [13] is GlcNAc(b1-3)[GlcNAc(b1-6)]Gal(b1-4)GlcNAc. An outline of the steps:
as §1

In assay [14] the target is GlcNAc(b1-3)[GlcNAc(b1-6)]GalNAc. An outline of the steps:
as §1

Assay [15] has as its target GlcNAc(b1-4)Gal(b1-4)GlcNAc. An outline of the steps: as §1
A further assay deals with GlcNAc(b1-4)GlcNAc. An outline of the steps:
as §1

The target in assay [16] is GlcNAc(b1-4)GlcNAc(b1-4)GlcNAc. An outline of the steps:
as §1

The text below walks through data of the supplement of paper PMC8728848.

This is one part of the list.

B1: HA-00510 (Pseudomonas aeruginosa), Q02V39_PSEAB (protein)
chain: GVPIVNIATPNGAGLSNNHFRDYNVGANGLILNNATGKTQGTQLGGIILGNPNLKGQAAQVILNQVTGGNRSTLAGYTEVAGQSARVIVANPHGITCQGCGFINTPRATLTTGKPIMDGQRLERFQVDGGDIVVEGAELNVGNLEQFDLITRSAKLNAKLYAKNLNIVTGRNDVQADSLQATPRAADGSEKPQLAIDSSALGGMYAGAIRLVGTEQGVGVKLAGDMAASGGDIRIDASGKLSLAQASSQGDLKIAAQAVELNGKTYAGGSAEIRSAEELVNRQS
On to B1, for which the “glycan array binding signal (z-score)” value was -0.449 in [1]; 0.54 in assay [2]; 0.95 in assay [3]; 0.56 in assay [4]; -0.664 in assay [5]; -0.18 in [6]. The “glycan array binding signal (z-score)” value in assay [7] is 0.06; in [8], -0.255; in [9] it was -1.21; in [10] it was 0.345; in assay [11], -0.708; with GlcNAc(b1-3)GalNAc it was -0.895. Besides, the “glycan array binding signal (z-score)” value with GlcNAc(b1-3)Man was -0.566; in assay [12], -0.79; in assay [13], -0.665; in assay [14], -0.542; in [15], 0.418; with GlcNAc(b1-4)GlcNAc it was -0.693. Further, in assay [16], the “glycan array binding signal (z-score)” value is -0.367.
